This is one part of the list.
B1: il2ra_site2_3nfp_normal_mot_HHH_b1_06586_000000201_0001_1_18_H_._HHH_b2_00207_0001_0000400016_0000001_0 (protein)
chain: SSSSSDEREFREAVRSALRLAEQIPDERIRRLALEWARAVALMLGDEELERLVEEVERELSSSSS
B2: il2ra_site2_2erj_normal_mot_HHH_b2_07568_000000046_0001_18_34_H_._HHH_b2_05401_0001_0000100005_0000001_1 (protein)
chain: SSSSDVEELLREAEELLEKGNPEEAAKVLREASERVFRLGDFELFSRIAELVLKVFRALNSSSSS
B3: il2ra_site2_2erj_sap_25_mot_HHH_b2_03871_000000240_0001_40_57_H_._ems_p1-15H-GBL-16H-GABBL-16H_0175_0001_0001_0002_0001_0000900032_0000001_0_0001_af2pred_0001_a … (protein)
chain: SSSSSEAEEAFRKAEELVEEGNLEKAAAVASLAMKLALEEGDEELFKRILELSFELAELLNSSSS
B4: il2ra_site2_2erj_sap_19_mot_HHH_b2_07456_000000168_0001_40_55_H_._HHH_b1_03179_af2_0001_0000400015_0000001_0_0001 (protein)
chain: SSSSSDETLEALEEMAEEAFERGDREELEYLYEFLRLTAETSNDPKLRELLEFIEQLLEELSSSS
B5: il2ra_site1_2b5i_normal_mot_HHH_b2_04131_000000150_0001_1_16_H_._HHH_b1_07426_af2_0001_0000600027_0000001_0_af2pred_dldesign_0_af2pred (protein)
chain: SSSSSDPAAAKRRALELFRQLNELTDPEERRRLLEEAIELAEAAKNEKLLEILRRALEELSSSSS
B6: il2ra_site1_2b5i_normal_mot_HHH_b1_08745_af2_000000166_0001_39_57_H_._HHH_b1_08025_0001_0000100001_0000001_0_af2pred_0001_af2pred_1 (protein)
chain: SSSSSELAREVVELIEEANRLLENGNPEEARRVLEEALELAREGNNPALERFVESALRATESSSS
B7: il2ra_site1_2b5i_normal_mot_HHH_b1_02271_000000068_0001_1_16_H_._HHH_b2_04126_af2_0001_0000300042_0000001_0_af2pred_dldesign_0_af2pred (protein)
chain: SSSSSPEREEVERLIARARELHAAGRRREALETLEEAKKIADAANDEELIDRIEELAKELSSSSS
B8: il2ra_site1_3nfp_sap_19_mot_HHH_b2_02224_000000045_0001_1_19_H_._HHH_b2_00858_af2_0001_0000400028_0000001_0_0001_af2pred_0001_af2pred_1 (protein)
chain: SSSSSTEVSRRVDELIRLLLKARSEEEIEEVFEEVRRLAEEANDPLAKRLVRLAYERARSSSSSS
B9: il2ra_site1_3nfp_normal_mot_HHH_b1_05128_000000175_0001_22_38_H_._HHH_b1_04028_0001_0000700042_0000001_0_af2pred_0001_af2pred_1 (protein)
chain: SSSSSDEHRRVFELIVQALRLLLEGNPEEARELLEEARELAEELGSEVAKELLESFERRLNSSSS
B10: il2ra_site1_1z92_sap_15_mot_HHH_b1_07293_af2_000000029_0001_1_19_H_._HHH_b1_01454_0001_0000200009_0000001_0_0001 (protein)
chain: SEEIEELLREILKKLTNPAQRFLIEQLLRKLEKGNEEAVRKLIERFVRAVGDPELKEVLRLLKET
B11: il2ra_site2_2erj_normal_mot_HHH_eva_0077_000000062_0001_1_20_H_._7893fd715048dbce5e23317e54f1e302_0001_0001_0000500027_0000001_0_af2pred_0001_1_af2pred_swapped (protein)
chain: DEEEALREVAEILGVPPEAVKREVEQAKKVFGDPHAVRKFLAALLRSAGVPPEEAERLAELLLRG
B12: il2ra_site2_2erj_normal_mot_HHH_b1_01555_af2_000000123_0001_22_39_H_._HHH_b1_05014_af2_0001_0000300033_0000001_1 (protein)
chain: SSSSDEAELAARFLEEEVEELEEEGDPERAKSLLRLALRFARLSGDEELVERLERLLEELRSSSS
B13: il2ra_site1_1z92_sap_13_mot_HHH_b2_02761_000000226_0001_1_18_H_._HHH_b1_06544_0002_0000100004_0000001_0_0001_af2pred_0001_af2pred_1 (protein)
chain: SSSSSTERALERLVRSLVRIAGLSEEQEEELREVAERLLEEGVDLREIARILDEVAQRLDSSSSS
B14: il2ra_site1_2b5i_sap_15_mot_HHH_b1_06844_000000212_0001_1_18_H_._HHH_b2_07277_af2_0001_0000100004_0000001_0_0001_af2pred_0001_af2pred_1 (protein)
chain: SSSSSSSDQEELIRELIELAEQIEDKKRARAILSMAKSLARHANNPELEEEVEKLLEELSSSSSS
B15: il2ra_site2_2erj_normal_mot_HHH_b1_08185_000000063_0001_41_55_H_._HHH_b2_06415_0001_0000400008_0000001_0 (protein)
chain: SSSSSEVEEEVLEILAKAIEAAHEGNPEEARRLLEEALRLAREGNNPLLERYIELALEDLSSSSS
B16: il2ra_site1_3nfp_sap_10_mot_HHH_b2_07963_000000084_0001_1_20_H_._HHH_b2_07386_0001_0000100006_0000001_0_0001_af2pred_0001_af2pred_1 (protein)
chain: SHEVAQRLVRLALEFGSLERVLRDLIKSARRAGDPELVELLEEALRLVEEGDPEEAVRLAEEALE
B17: il2ra_site1_2b5i_normal_mot_HHH_b1_07881_af2_000000049_0001_1_19_H_._HHH_b1_06755_af2_0001_0000200019_0000001_0 (protein)
chain: SSSSDEEFERLEELFHEASRLWRKGDQEEARKLLEEAIRLARELGDERIVEQLEELLRRLSSSSS
B18: il2ra_site1_1z92_sap_19_mot_dcc082f2f05f1f568a7f06b444f4667a_0001_1_000000057_0001_35_49_H_._bc00b440d29913a483da04f69f237b60_0001_af2_0001_0000100001_0000001_0 … (protein)
chain: SSSSDEEARELLEAIARLIREFGLNLEQIQELLRLARELDQRGVSVEEIEELLRELAKELSSSSS

These binders were tested against il2ra, P01589 (assay: yeast display titration).

Apparent Kd, inactive:
B1 no binding seen, B2 no binding seen, B3 no binding seen, B4 no binding seen, B5 no binding seen, B6 no binding seen, B7 no binding seen, B8 no binding seen, B9 no binding seen, B10 no binding seen, B11 no binding seen, B12 no binding seen, B13 no binding seen, B14 no binding seen, B15 no binding seen, B16 no binding seen, B17 no binding seen, B18 no binding seen

— PMC10163288
